These are yes or no findings as the source states them, for the method shown.
Target: (EL)3
Assay: time-resolved Thioflavin T fluorescence; salmon testes DNA injected into peptide; 150 mM NaCl, 10 mM MES pH 6.5, 50 uM Thioflavin T; 500 uM (HL)3 + 500 uM DNA final; 27 to 30 C; 270 s; both purified

binding: no binding
B1: (EL)3 (peptide)
peptide: ELELEL

Source: paper PMC3098241, “Amyloid-Associated Nucleic Acid Hybridisation” (PLoS ONE, 2011)
